Source: PMC8765293, “Inhibitor-Resistant Mutants Give Important Insights into Candida albicans ABC Transporter Cdr1 Substrate Specificity and Help Elucidate Efflux Pump Inhibition” (Antimicrobial Agents and Chemotherapy, 2022)

Amino acid sequences for entries named in this document (tags omitted). A change or cut given only in a name is not applied to a line headed by its entry.
UniProt Q5ANA3: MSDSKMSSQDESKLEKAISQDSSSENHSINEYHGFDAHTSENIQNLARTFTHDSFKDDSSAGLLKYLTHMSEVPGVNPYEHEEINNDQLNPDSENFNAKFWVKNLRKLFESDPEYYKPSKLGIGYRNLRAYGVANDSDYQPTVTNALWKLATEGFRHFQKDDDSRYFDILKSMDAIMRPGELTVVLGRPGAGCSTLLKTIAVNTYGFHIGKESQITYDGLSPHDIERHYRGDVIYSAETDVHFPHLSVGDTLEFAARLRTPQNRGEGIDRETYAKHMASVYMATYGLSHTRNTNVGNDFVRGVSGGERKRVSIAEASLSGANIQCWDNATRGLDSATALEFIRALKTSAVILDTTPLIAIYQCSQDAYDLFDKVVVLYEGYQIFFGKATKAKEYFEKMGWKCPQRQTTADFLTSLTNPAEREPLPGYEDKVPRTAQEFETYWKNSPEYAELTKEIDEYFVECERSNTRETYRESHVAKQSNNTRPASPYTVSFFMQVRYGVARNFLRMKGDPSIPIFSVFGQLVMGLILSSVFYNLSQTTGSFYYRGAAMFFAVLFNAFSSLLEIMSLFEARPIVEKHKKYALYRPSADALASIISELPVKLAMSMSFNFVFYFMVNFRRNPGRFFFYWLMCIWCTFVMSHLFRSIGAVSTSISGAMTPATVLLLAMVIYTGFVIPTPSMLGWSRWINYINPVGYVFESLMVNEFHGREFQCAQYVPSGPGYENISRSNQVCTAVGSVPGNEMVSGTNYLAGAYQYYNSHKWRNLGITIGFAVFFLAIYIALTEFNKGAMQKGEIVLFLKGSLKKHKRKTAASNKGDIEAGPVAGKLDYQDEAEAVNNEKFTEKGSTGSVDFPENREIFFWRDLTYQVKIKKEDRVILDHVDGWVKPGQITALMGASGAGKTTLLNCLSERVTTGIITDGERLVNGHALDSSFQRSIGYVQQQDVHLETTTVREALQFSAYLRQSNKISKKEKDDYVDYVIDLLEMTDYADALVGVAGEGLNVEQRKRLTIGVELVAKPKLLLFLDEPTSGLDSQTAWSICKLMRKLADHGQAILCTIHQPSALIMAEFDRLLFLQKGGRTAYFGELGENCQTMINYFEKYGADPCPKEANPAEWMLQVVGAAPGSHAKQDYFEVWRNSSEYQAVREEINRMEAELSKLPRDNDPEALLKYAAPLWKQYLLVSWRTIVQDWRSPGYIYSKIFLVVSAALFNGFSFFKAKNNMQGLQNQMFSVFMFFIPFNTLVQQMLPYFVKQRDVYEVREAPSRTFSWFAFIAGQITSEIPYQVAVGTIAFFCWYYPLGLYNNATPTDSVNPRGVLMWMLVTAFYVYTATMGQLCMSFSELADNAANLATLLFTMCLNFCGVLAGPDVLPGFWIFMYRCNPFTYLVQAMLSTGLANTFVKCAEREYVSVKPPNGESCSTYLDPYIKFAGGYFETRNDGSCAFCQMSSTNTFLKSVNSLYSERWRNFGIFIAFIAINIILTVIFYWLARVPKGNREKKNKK

Target: wt Cdr1 ATPase activity (Candida albicans, UniProt Q5ANA3)
Experiment: biochemical

For Clc1ccccc1C(c1ccccc1)(c1ccccc1)n1ccnc1 [CLT, clotrimazole], the IC50 was 30 µM.
